# From PubChem BioAssay AID1347075 (National Center for Advancing Translational Sciences (NCATS), 2019)
# Out of some 400,000 compounds screened, about 5,500 (1.4%) were called active. Inconclusive means that the source gave no clear call. Such entries were picked first, then a sample of the others. Calls follow the shape of the dose curve; as a rule, active = well fitted cell-killing curve with a large enough effect; inconclusive = small, poorly fitted or top-dose-only effect, or effect the other way; inactive = flat fitted curve, though single readings scatter. Potencies beside an inconclusive call are fits to weak or partial responses and may not hold up.
# Experiment: qHTS assay for MDR1-selective chemotherapeutics: Primary screen using the parental adenocarcinoma cell KB-3-1; also: nearly all actives have a fitted effect of over 60% in size
# Details: KB-3-1 viability, CellTiter-Glo ATP luminescence, 72 h; activity change, negative = cytotoxic: at 46.1 µM (top of the series)
# Summary of the method: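 Here the drug-naive KB-3-1 line serves as comparator for MDR sub-line selectivity; cells received compound titrations, 72 h at 37 °C, then CellTiter-Glo readout.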
# % is scaled to controls: 0 for no effect and ±100 for the full control effect; potency is read from the fitted curve at half-maximal effect.
SMILES,Potency,"activity change, negative = cytotoxic"
C/C(=N\NC(=O)CCc1ccccc1)C1C(=O)c2ccccc2C1=O,"inconclusive: 32.6 µM [cytotoxic, single point]",–
COc1ccc(-n2c(/C=C/c3cccc4ccccc34)nc3ccccc3c2=O)cc1Cl,"inconclusive: 18.4 µM [cytotoxic, single point]",–
C=CCn1c(SCC(=O)N2CCc3ccccc3C2)nc2sc(C)c(C)c2c1=O,inactive,–
CCCOc1ccc(C(=O)c2ccccc2C(=O)OC2CCOC2=O)cc1OCCC (stereo not drawn),"inconclusive: 18.4 µM [cytotoxic, single point]",–
COc1ccccc1Nc1cc(C(=O)NCc2cccnc2)c2ccccc2n1,inactive,–
Cc1ccc(S(=O)(=O)Nc2nc3ccccc3nc2N2CCc3ccccc3C2)cc1,"inconclusive: 29.1 µM [cytotoxic, single point]",–
Cc1cccc(N2CCN(c3nc(C)cc(C)c3C#N)CC2C)c1 (stereo not drawn),"inconclusive: 14.6 µM [cytotoxic, single point]",–
CCOc1ccc(C(=O)NCC(=O)N2CCN(c3ccccc3O)CC2)cc1,inactive,–
CCCCNc1c(-c2cc3ccccc3o2)nc2nc(C)cc(C)n12,"inconclusive: 20.6 µM [cytotoxic, single point]",–
COc1ccc(-c2c(-c3ccccc3OC)sc3ccccc23)cc1OC,"inconclusive: 20.6 µM [cytotoxic, single point]",–
CSCCC(NC(=O)c1ccccc1Cl)C(=O)NCCc1ccccn1 (stereo not drawn),inactive,–
COc1ccc(S(=O)(=O)N2CCCCCC2)cc1C(=O)N(C)Cc1ccc(C(C)(C)C)cc1,"inconclusive: 29.1 µM [cytotoxic, single point]",–
Cc1ccc(C)c(N2CCN(C(C(=O)NC3CCCC3)C(C)C)CC2)c1 (stereo not drawn),"inconclusive: 20.6 µM [cytotoxic, single point]",–
CCOCCCNC(=S)Nc1ccc(S(N)(=O)=O)cc1,inactive,–
COc1cccc(/C=N/Nc2nc3ccccc3n3cnnc23)c1O,"inconclusive: 9.2 µM [cytotoxic, partial curve]",–
Cc1ccc(N=Cc2cc3c(cc2O)OC(N)=C(C#N)C3c2ccccc2)cc1 (stereo not drawn),"inconclusive: 18.4 µM [cytotoxic, partial curve, poor fit]",–
CCC(=O)Nc1ccc(-c2nn3c(C)nnc3s2)cc1C,"inconclusive: 23.1 µM [rising, partial curve, poor fit]",–
Fc1ccc(-c2csc(N3CCOCC3)n2)cc1,–,inconclusive: -2.3%
O=C(NC(CC(=O)N1CCN(c2ccc([N+](=O)[O-])cc2)CC1)c1ccccc1)c1ccccc1Cl (stereo not drawn),inactive,–
CC(=O)c1ccc(OCCCC(=O)Nc2ccc(Cl)c(S(=O)(=O)N3CCOCC3)c2)cc1,"inconclusive: 11.6 µM [cytotoxic, partial curve, poor fit]",–
Cc1cc(C)c(C(=O)COC(=O)CNC(=O)c2ccccc2C)c(C)c1,"inconclusive: 23.1 µM [rising, partial curve, poor fit]",–
C=CCc1cccc(/C=N/NC(=O)C(C)Nc2ccc(C)cc2)c1O (stereo not drawn),"inconclusive: 29.1 µM [cytotoxic, single point]",–

SMILES,Potency,"activity change, negative = cytotoxic"
O=C(CSc1nnnn1C1CC1)N1CCN(c2cccc(Cl)c2)CC1,"inconclusive: 14.6 µM [cytotoxic, partial curve, poor fit]",–
C/C(=N\NC(=S)Nc1cc(S(=O)(=O)N2CCOCC2)ccc1Cl)c1ccccc1F,"inconclusive: 29.1 µM [cytotoxic, single point]",–
CCN(CC(=O)NCc1ccc(Cl)cc1)C(=O)/C=C/c1cc(OC)c(OC)c(OC)c1,"inconclusive: 20.6 µM [rising, partial curve, poor fit]",–
Cc1ccc(C(=O)OCC(=O)NC2CCCC2)cc1C,inactive,–
Cc1ccc(NC2=CC(=O)CC(C)(C)C2)cc1C,inactive,–
Cc1ccccc1C(=O)Nc1ccccc1N1CCN(C(=O)c2ccccc2)CC1,inactive,–
CCCN(C)CCCOc1cc2nc(N3CCCN(C)CC3)nc(NC3CCN(C)CC3)c2cc1OC,–,inconclusive: -60.4%
COc1ccc(CN(CCC(c2ccccc2)c2ccc(OC(C)C)cc2)C(=O)CCl)cc1OC (stereo not drawn),active: 10.3 µM,–
CC(=O)c1cccc(NC(=O)CSc2ccc(-c3ccccn3)nn2)c1,"inconclusive: 32.6 µM [cytotoxic, single point]",–
CCOc1ccc(OCCSc2nc(N)cc(=O)[nH]2)cc1,"inconclusive: 32.6 µM [cytotoxic, single point]",–
O=C(O)CCCCCN1C(=O)/C(=C/c2cn(-c3ccccc3)nc2-c2cccs2)SC1=S,inactive,–
CCCn1nnc(NC(=O)Cc2ccc(Cl)cc2)n1,"inconclusive: 29.1 µM [rising, single point]",–
S=c1[nH]nc(-c2ccc(Cl)cc2)n1/N=C/c1cccs1,inactive,–
CCn1c(=O)cc(OCC(=O)NCc2ccccc2Cl)c2ccccc21,inactive,–
COc1cccc(NC(=O)c2ccccc2NC(=O)c2ccncc2)c1,"inconclusive: 29.1 µM [cytotoxic, single point]",–
C#CCOCCOCCOCCNc1nc(N2CCN(C(=O)CCCCCCCCCCNC(=O)[C@H](CCCCN)n3cc(C[C@@H](C)CC)nn3)CC2)nc(N2CCN(C(=O)CCCCCCCCCCNC(=O)[C@H](CCCN=C(N)N)n3cc(C[C@@H](C)CC)nn3)CC2)n1,inactive,–
CCCS(=O)(=O)c1c(S(=O)(=O)CCC)c2c(C)cccn2c1C(=O)N/N=C/c1cc(O)cc(O)c1,"inconclusive: 18.4 µM [cytotoxic, single point]",–
Cc1nnc(SCc2nc(-c3ccc(Cl)cc3)no2)n1-c1ccc(F)cc1,"inconclusive: 32.6 µM [cytotoxic, single point]",–
CCS(=O)(=O)c1ccc2oc(Nc3ccccc3Br)nc2c1,"inconclusive: 11.6 µM [cytotoxic, partial curve, poor fit]",–
COc1cc(C#Cc2ccc3cc(CCCO)oc(=O)c3c2)cc(OC)c1,"inconclusive: 29.1 µM [cytotoxic, partial curve, poor fit]",–
CCc1ccc2nc(N(CCCN(C)C)C(=O)c3ccc(S(=O)(=O)N(C)C4CCCCC4)cc3)sc2c1,"inconclusive: 18.4 µM [cytotoxic, single point]",–

# 2 consecutive entries from above, for reference:
SMILES,Potency,"activity change, negative = cytotoxic"
O=C(CSc1nnnn1C1CC1)N1CCN(c2cccc(Cl)c2)CC1,"inconclusive: 14.6 µM [cytotoxic, partial curve, poor fit]",–
C/C(=N\NC(=S)Nc1cc(S(=O)(=O)N2CCOCC2)ccc1Cl)c1ccccc1F,"inconclusive: 29.1 µM [cytotoxic, single point]",–
